Data taken from patent US4304715A (priority 1979, dated 1981).

Experiment: general procedure: Boc solid-phase peptide synthesis; 1.4% crosslinked 100-200 mesh phenolic resin (acetoxystyrene/styrene/divinylbenzene copolymer, deacetylated); peptide ph; DCCI (with pyridine, N-methyl morpholine or HOBt)
Conditions: whole synthesis, overall, based on methionine originally coupled to the resin, hydrochloride (lyophilised from HCl)

BOC-Tyr-Gly-Gly-Phe-Met-OH gave an isolated yield of 58%.
